Drawing on doi:10.1101/2025.03.24.644918, this text covers binding for one substance.

Sequences of proteins named here, by UniProt entry; tags and fusion partners are left off.
UniProt Q8TDY2: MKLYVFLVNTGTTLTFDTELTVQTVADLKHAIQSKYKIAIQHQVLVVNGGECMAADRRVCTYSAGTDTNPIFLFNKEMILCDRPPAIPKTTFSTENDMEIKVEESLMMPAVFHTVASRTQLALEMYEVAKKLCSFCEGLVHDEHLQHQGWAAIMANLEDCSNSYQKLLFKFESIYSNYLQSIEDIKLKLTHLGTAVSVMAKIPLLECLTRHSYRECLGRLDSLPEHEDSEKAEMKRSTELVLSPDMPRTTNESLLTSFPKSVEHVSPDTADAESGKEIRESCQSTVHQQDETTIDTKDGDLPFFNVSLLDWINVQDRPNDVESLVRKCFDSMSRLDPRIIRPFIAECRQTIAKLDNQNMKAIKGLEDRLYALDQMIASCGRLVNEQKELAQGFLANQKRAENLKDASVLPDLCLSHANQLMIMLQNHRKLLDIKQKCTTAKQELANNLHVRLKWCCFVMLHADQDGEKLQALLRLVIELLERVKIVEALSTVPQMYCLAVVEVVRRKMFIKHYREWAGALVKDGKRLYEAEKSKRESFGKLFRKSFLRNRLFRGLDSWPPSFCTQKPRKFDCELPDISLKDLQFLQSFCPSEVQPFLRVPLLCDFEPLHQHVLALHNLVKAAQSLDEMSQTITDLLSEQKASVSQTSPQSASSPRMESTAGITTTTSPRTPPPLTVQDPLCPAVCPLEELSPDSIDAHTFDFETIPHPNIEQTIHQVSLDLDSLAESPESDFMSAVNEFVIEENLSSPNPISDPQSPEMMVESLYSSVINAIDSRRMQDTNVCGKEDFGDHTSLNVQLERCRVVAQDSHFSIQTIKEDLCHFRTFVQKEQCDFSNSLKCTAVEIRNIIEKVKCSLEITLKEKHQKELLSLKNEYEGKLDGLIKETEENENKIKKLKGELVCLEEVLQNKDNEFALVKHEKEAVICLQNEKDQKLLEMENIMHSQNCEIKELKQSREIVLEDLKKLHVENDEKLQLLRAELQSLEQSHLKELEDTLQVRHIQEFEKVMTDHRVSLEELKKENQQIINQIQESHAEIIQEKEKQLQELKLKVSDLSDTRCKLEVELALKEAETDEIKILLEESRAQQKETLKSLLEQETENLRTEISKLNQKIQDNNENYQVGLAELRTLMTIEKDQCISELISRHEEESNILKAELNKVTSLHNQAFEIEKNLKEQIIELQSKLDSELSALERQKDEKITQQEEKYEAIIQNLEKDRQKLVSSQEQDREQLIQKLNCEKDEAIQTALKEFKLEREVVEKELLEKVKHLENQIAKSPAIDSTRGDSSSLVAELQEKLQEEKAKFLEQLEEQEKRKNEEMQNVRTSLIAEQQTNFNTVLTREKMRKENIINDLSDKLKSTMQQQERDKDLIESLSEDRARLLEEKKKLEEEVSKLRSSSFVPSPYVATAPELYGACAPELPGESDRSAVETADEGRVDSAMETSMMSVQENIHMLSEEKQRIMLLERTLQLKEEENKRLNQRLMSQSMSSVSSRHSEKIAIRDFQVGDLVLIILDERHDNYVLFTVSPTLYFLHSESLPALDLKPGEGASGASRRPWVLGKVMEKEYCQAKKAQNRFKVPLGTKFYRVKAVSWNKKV

This assay addresses T1, N-terminally myc-tagged full-length murine CCPG1 (mouse) (UniProt Q640L3).
T1 sequence: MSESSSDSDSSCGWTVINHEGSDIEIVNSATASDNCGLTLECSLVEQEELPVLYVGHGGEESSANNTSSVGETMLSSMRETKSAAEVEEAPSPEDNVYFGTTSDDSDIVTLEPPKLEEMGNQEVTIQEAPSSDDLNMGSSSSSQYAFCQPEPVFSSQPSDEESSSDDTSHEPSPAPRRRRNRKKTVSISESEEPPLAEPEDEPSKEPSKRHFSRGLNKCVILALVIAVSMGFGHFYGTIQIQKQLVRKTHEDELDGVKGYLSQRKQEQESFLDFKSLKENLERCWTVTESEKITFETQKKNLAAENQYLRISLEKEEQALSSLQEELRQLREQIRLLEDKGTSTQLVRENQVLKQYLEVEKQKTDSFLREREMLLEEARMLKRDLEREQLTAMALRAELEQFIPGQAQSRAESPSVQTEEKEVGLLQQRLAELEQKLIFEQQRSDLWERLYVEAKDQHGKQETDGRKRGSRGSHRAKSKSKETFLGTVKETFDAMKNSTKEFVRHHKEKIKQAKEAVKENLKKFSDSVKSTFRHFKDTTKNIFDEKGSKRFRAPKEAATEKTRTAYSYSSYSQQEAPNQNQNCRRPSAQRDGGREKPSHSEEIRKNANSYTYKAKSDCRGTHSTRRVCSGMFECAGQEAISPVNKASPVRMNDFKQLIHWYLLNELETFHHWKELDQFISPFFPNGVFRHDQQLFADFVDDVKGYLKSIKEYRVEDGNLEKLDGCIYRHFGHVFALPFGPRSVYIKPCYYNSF
Briefly: co-IP.

No constants are given. Whether binding was seen depends on the method and setting. In cells and extracts the contact can be indirect. Some entries that bind do so weakly or less than the wild type. Where a sequence is shown, tags or fusion partners need not be part of it.

Turning to “FIP200 (endogenous) (from UniProt Q8TDY2 1-1594)”, the binding entry is listed as “binds”.
